This data set has as its system rat ear skin temperature. The data set can be described thus: Ear skin temperature rise caused by NA, p.o. administration. It is filed as in vivo, Wistar rats. As to the method:
Male Wistar rats (280-330 g) were used. Animals were held in groups of 6 in climatized rooms at 22±1° C., relative humidity 60±5%, and 12/12-hour light/dark cycle with free access to drinking water and feed (R3—Lactamin AB, Sweden). For registration of changes in skin temperature of intact rats contactless temperature recording method was used (Papaliodis D et al, Br J Pharmacol 2008; 153:1382-1387). Temperature measurements were performed with a hand-held infrared thermometer (Model Proscan 510, TFA-Dostman). Animals were habituated to handling and to the infrared probe for 3 days before use. Temperature readings from the dorsal side of each ear were recorded without anaesthesia at beginning and during experiment. The ear temperature was measured every 5 min. for a period of up to 60 min. The animals were returned to their cages between measurements. NA, MD and MASA were dissolved in saline and pH was corrected immediately before usage. LA (MK 0524, Cayman Chemicals) was first dissolved in DMSO and then freshly diluted with 0.9% NaCl, on each day of the experiment. The rate of NA and LA combination was based on Summary of Product Characteristics for Tredaptive™ (nicotinic acid/laropiprant) 1000 mg/20 mg modified-release tablets.
9.2.3. Investigation of the Effect of MASA/NA and MD/NA Combination on Skin Temperature at Simultaneous or 45 Min Advance p.o. Administration

`CC(=O)Oc1ccccc1C(=O)[O-].C[N+](C)(C)NCCC(=O)O` [MASA, 3-(trimethylammonioamino)propanoate Acetylsalicylic Acid Addition Salt]: the Initial temp. (MASA 150 mg/kg p.o. alone) was 29.7 ± 0.28 °C.

For the compound `C[N+](C)(C)NCCC(=O)[O-].O.O` [MD, 3-(Trimethylammonioamino)propanoate dihydrate], the Initial temp. (MD 100 mg/kg p.o. alone) worked out at 29.9 ± 0.35 °C. In the case of `O=C(O)c1cccnc1` [NA, nicotinic acid], the Initial temp. (NA 40 mg/kg p.o.) was 30.0 ± 0.41 °C.
